Assay results as given in article PMC12594171, “DKK3-LRP1 complex and a chemical inhibitor regulate Aβ clearance in models of Alzheimer’s disease” (Science Advances, 2025).

Target: T1, Flag-tagged DKK4 (UniProt Q9UBT3)
T1 sequence: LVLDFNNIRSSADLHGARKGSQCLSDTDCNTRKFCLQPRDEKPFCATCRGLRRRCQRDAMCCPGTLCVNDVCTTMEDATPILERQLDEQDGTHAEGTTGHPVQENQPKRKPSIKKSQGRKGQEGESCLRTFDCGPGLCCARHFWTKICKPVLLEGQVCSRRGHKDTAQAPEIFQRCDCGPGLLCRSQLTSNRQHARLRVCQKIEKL
Assay: co-IP; extract of HEK293 DKK4+ cells, immunoblot for endogenous LRP1 (fig. S1D)

binding: binds
Substance: low-density lipoprotein receptor-related protein 1 (LRP1), endogenous in HEK293 (human (endogenous in HEK293))

Results are given in words; binding and its absence hold for the method and conditions named. Binding seen in cells or lysates may run through a third protein. Binding can be weak; no strength is given. Tags and fused reporters may be left off the sequences shown.
